Hit rate of the full screen: of about 580,000 compounds, about 6,100 (1.1%) were called active. Inconclusive means that the source gave no clear call. Such entries were picked first, then a sample of the others. Calls follow the shape of the dose curve; as a rule, active = well fitted inhibition curve with a large enough effect; inconclusive = small, poorly fitted or top-dose-only effect, or another doubt; inactive = no such curve, though single readings can be large or run the other way. Where the call is inconclusive, the potency comes from a doubtful curve fit.
target: Polyunsaturated fatty acid lipoxygenase ALOX12 (Homo sapiens) (UniProt P18054); test: Primary qHTS assay for inhibitors of human arachidonate 12S-lipoxygenase (ALOX12): Round 2; settings: purified 12hLO, xylenol orange hydroperoxide absorbance; activity change, negative = inhibition: at 108 µM (top of the series) unless noted
Summary of the method: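 Purified human 12hLO at 150 nM in 25 mM Hepes, 0.01% Triton X-100, pH 7.0, preincubated 15 min at room temperature with compound. Reaction started with 40 uM arachidonic acid, 30 min at room temperature. Hydroperoxide measured by Fe-xylenol orange, 573/405 nm absorbance ratio.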
% is scaled to controls: 0 for no effect and ±100 for the full control effect; potency is read from the fitted curve at half-maximal effect.

Chains of the proteins cited; added tags and fusions are not shown.
UniProt P18054, whole entry, looked up: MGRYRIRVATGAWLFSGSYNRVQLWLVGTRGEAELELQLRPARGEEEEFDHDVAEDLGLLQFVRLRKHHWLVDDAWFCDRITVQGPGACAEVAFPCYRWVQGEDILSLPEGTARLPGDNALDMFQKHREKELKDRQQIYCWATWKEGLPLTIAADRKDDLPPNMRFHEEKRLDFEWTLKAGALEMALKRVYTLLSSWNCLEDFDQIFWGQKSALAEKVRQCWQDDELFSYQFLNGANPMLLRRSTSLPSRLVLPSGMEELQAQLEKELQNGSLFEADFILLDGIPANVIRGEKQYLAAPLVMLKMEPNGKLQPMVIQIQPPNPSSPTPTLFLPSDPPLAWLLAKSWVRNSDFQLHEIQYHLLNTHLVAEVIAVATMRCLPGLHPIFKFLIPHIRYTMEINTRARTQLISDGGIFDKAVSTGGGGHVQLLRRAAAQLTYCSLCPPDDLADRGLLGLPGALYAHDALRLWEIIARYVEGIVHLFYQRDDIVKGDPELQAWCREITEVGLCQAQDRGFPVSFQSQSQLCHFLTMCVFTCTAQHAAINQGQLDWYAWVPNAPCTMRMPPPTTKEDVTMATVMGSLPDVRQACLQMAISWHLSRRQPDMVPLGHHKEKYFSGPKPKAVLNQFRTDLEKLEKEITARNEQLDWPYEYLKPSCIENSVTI

Row | Compound | Potency | activity change, negative = inhibition
1 | CCOC(=O)C1Nc2ccccc2C2C(O)C(O)CC12 (configuration not stated) | inactive | 
2 | O=C(O)Cn1cc(C(=S)N2CCCCC2)c2ccccc21 | active: 39.8 µM | 
3 | Cc1ccc(-c2nc(=S)c3c(n2Cc2ccco2)CCCC3)cc1 | inconclusive: 50.1 µM [inhibitor, partial curve, poor fit] | 
4 | Cc1cc(O)ccc1N/C=C1\CCCC1=O | inconclusive: 44.7 µM [inhibitor, partial curve, poor fit] | 
5 | Cc1cccc(NC(=O)c2ccccn2)c1C | inconclusive: 3.55 µM [inhibitor, full curve, poor fit] | 
6 | CCC(=O)Nc1ccc(NC(=O)c2ccco2)c(OC)c1 | inactive | 
7 | Cc1nn(C)cc1CN(C)C(=O)Cn1nc(C(F)(F)F)c(Br)c1C1CC1 | inactive | 
8 | COCCn1c(C)cc(C(=O)COc2ccc(C)nc2[N+](=O)[O-])c1C | inactive | 
9 | COC(=O)C1(C(=O)OC)C[C@H](c2ccc(OC)cc2)N(Cc2ccccc2OC)[C@@H]1c1ccccc1 | inactive | 
10 | CC(C)n1cnnc1CN(C)c1nc(N)nc2nc[nH]c12 | inconclusive: 8.91 µM [inhibitor, partial curve] | 
11 | O=C(c1ccc(Cl)cc1)C(CN1CCCCC1)c1ccccc1 (configuration not stated) | inconclusive: 25.1 µM [inhibitor, full curve, poor fit] | 
12 | COc1cccc2cc(C(=O)NCc3ccc(Cl)cc3)c(=N)oc12 | inactive | 
13 | CC1CCN(S(=O)(=O)c2ccc3c(c2)c(=O)c(C(=O)NCCc2ccccc2)cn3C)CC1 | inconclusive: 44.7 µM [inhibitor, partial curve, poor fit] | 
14 | CCCCCCCCCCCCS(=O)C1CCCCC1OC(C)=O (configuration not stated) | inconclusive: 63.1 µM [inhibitor, partial curve, poor fit] | 
15 | Fc1ccc(N2CCCN(CC3[C@H]4CNC[C@@H]34)CC2)cc1 (some centres not stated) | inconclusive: 10 µM [inhibitor, full curve] | 
16 | O=C(CCN1C(=O)/C(=C/C=C/c2ccccc2)SC1=S)Nc1ccccn1 | inconclusive: 44.7 µM [inhibitor, partial curve, poor fit] | 
17 | O=C(NC12CC3CC(CC(C3)C1)C2)c1ccc(Br)o1 | inactive | 
18 | CCCNC(=O)c1ccc2c(=O)n3c(-c4ccc(C)cc4)csc3nc2c1 | active: 11.2 µM | 
19 | COc1ccccc1NC(=O)CSc1nnc(NC(=O)Nc2ccc(C)cc2)s1 | inconclusive: 100 µM [inhibitor, partial curve, poor fit] | 
20 | CC1(C)NC(=O)N(CC(=O)N2CCN(S(=O)(=O)c3cc(Cl)ccc3Cl)CC2)C1=O | inactive | 
21 | COc1ccccc1CNC(=O)c1c(O)nc2c(C)cccn2c1=O | inactive | 
22 | N#Cc1ccc(-c2nc3ccccc3s2)cc1 | inconclusive: 12.6 µM [inhibitor, full curve] | 
23 | O=C(CCc1nnc(C2(c3ccc(Cl)cc3)CCC2)o1)NCCCn1cccn1 | inactive | 

2 compounds drawn at random from those above, as already listed:
Row | Compound | Potency | activity change, negative = inhibition
21 | COc1ccccc1CNC(=O)c1c(O)nc2c(C)cccn2c1=O | inactive | 
8 | COCCn1c(C)cc(C(=O)COc2ccc(C)nc2[N+](=O)[O-])c1C | inactive | 

Additional compounds follow.

Row | Compound | Potency | activity change, negative = inhibition
24 | N#Cc1ccc(NC(=O)Cn2c(=O)c3c(ncn3C3CCCC3)n(Cc3ccccc3)c2=O)cc1 | inconclusive: 3.16 µM [inhibitor, single point] | 
25 | CN1/C(=C\C=C(C#N)C#N)C(C)(C)c2ccccc21 | inactive | 
26 | CCN1CCc2c(sc(NC(=O)Cc3ccccc3)c2C(=O)OC)C1 | inconclusive: 44.7 µM [inhibitor, partial curve, poor fit] | 
27 | CC1CCCCN1C(=O)CSc1nc(-c2ccco2)cc(C(F)(F)F)n1 (configuration not stated) | inconclusive: 141 µM [inhibitor, single point] | 
28 | CCN(CC)C(=O)C(c1ccccc1)N1CCN(S(=O)(=O)c2cccs2)CC1 (configuration not stated) | inactive | 
29 | COc1ccc2cc(CN(Cc3ccco3)Cc3nnnn3C3CCCCC3)c(=O)[nH]c2c1 | inconclusive: 25.1 µM [inhibitor, partial curve, poor fit] | 
30 | COc1cc(OC)c2cc(C(=O)NCC(=O)Nc3nc(C)cs3)n(C)c2c1 | inactive | 
31 | O=C(NCCCN1CCOCC1)c1cc2c(s1)CCCC2 | inconclusive: 79.4 µM [inhibitor, single point] | 
32 | COc1cccc(C(=O)/C=C2\NCCc3cc(OC)c(OC)cc32)c1 | inconclusive: 35.5 µM [inhibitor, partial curve, poor fit] | 
33 | Cc1cccc(NC(=O)c2cc3n(n2)C(C(F)(F)F)CC(c2ccc4c(c2)OCO4)N3)c1 (configuration not stated) | inconclusive: 0.891 µM [inhibitor, full curve, poor fit] | 
34 | c1ccc(-c2nc(NCc3cccs3)c3ccccc3n2)cc1 | inactive | 
35 | COc1cccc(-n2c(Cc3cc(=O)[nH]c(=O)[nH]3)nnc2SCC(=O)N2CCCCC2)c1 | active: 8.91 µM | 
36 | CCOc1cccc2sc(N(CCCN(C)C)C(=O)c3ccc(S(=O)(=O)N(C)c4ccccc4)cc3)nc12 | inconclusive: 44.7 µM [inhibitor, partial curve, poor fit] | 
37 | COc1cc(CN2CCN(C(=O)c3cccc4ccccc34)CC2)cc(OC)c1OC | inconclusive: 1 µM [inhibitor, full curve, poor fit] | 
38 | COc1nc(N(C)C)nc(N(C#N)S(=O)(=O)c2ccc(C)cc2)n1 | inconclusive: 31.6 µM [inhibitor, partial curve, poor fit] | 
39 | COc1ccc(OC)c(CN2CCC3(CC2)OC(=O)N(Cc2ccccc2C#N)C3(C)c2ccccc2)c1 (configuration not stated) | inconclusive: 39.8 µM [inhibitor, full curve] | 
40 | NS(=O)(=O)c1ccc(-c2c(-c3ccccc3)sc3ccccc23)cc1 | inconclusive: 31.6 µM [inhibitor, partial curve, poor fit] | 
41 | O=C(NCc1ccc(Cl)c(Cl)c1)c1cc(C2CCCCN2C(=O)c2ccccc2)on1 (configuration not stated) | inconclusive: 89.1 µM [inhibitor, single point] | 
42 | CCOc1ccc(OCC(=O)NCCS(=O)(=O)N2CCN(c3ccccc3F)CC2)cc1 | inconclusive: 50.1 µM [inhibitor, partial curve, poor fit] | 
43 | CNC(=O)C(C)n1nc(-c2cc(C)ccc2C)c2ccccc2c1=O (configuration not stated) | inactive | 
44 | COc1ncnc2c1ncn2CCCNCc1ccccc1 | inconclusive: 39.8 µM [inhibitor, single point] | 
45 | COC(=O)CNC(=O)C1CCN(S(=O)(=O)c2cccc3nsnc23)CC1 | inconclusive: 141 µM [inhibitor, partial curve, poor fit] | 
46 | CCOc1cc(/C=C(/C#N)C(=O)OCCOC)cc(Cl)c1OC | inconclusive: 141 µM [inhibitor, partial curve, poor fit] | 

Row | Compound | Potency | activity change, negative = inhibition
47 | CC1CCCC(NC(=O)C2CCN(C(=O)Nc3ccccc3)CC2)C1C (configuration not stated) | inconclusive: 39.8 µM [inhibitor, partial curve, poor fit] | 
48 | Cc1ccc(S(=O)(=O)N2CCN(C(=O)COC(=O)c3ccc4ccccc4c3)CC2)c(C)c1 | inconclusive: 35.5 µM [inhibitor, partial curve] | 
49 | Cn1c(=O)c2c(ncn2Cc2cc(-c3ccccc3)no2)n(C)c1=O | inactive | 
50 | CC(Sc1nnc(N2CCCC2)n1-c1cccc(Cl)c1)c1nc(-c2ccco2)no1 (configuration not stated) | inconclusive: 28.2 µM [inhibitor, partial curve] | 
51 | COc1ccccc1NC(=O)Nc1nnc(CC(=O)Nc2cccc(C)c2)s1 | inconclusive: 50.1 µM [inhibitor, partial curve, poor fit] | 
52 | CSc1cccc(NS(=O)(=O)c2cccc3nsnc23)c1 | inconclusive: 31.6 µM [inhibitor, partial curve, poor fit] | 
53 | Cc1cccc(C)c1NC(=O)C(c1ccccc1)n1c(=O)c(-c2ccco2)nc2ccccc21 (configuration not stated) | inconclusive: 39.8 µM [inhibitor, partial curve, poor fit] | 
54 | CCCc1nnc(NC(=O)CCC(=O)NCc2ccccc2Cl)s1 | inconclusive: 14.1 µM [inhibitor, partial curve, poor fit] | 
55 | O=C(c1ccco1)N1CCN(c2ccc(Cl)c(Cl)c2)CC1 | inconclusive: 44.7 µM [inhibitor, partial curve, poor fit] | 
56 | CCOc1ccc(NC(=O)Cc2c(C)[nH]n(-c3nc(-c4ccc(Cl)cc4)cs3)c2=O)cc1 | inactive | 
57 | CCOCCCNCc1c(OCC)ccc2ccccc12 | inconclusive: 44.7 µM [inhibitor, partial curve, poor fit] | 
58 | Cc1noc(C)c1C(=O)N1CCC2(CCCN(C(=O)Nc3cccc(F)c3)C2)CC1 | inconclusive: 31.6 µM [inhibitor, single point] | 
59 | Oc1ccc(/C=N/n2c(-c3ccco3)csc2=Nc2cccnc2)c(O)c1 | inconclusive: 28.2 µM [inhibitor, partial curve, poor fit] | 
60 | COc1ccc(S(=O)(=O)NCc2ccccn2)cc1NC(=O)c1ccccc1C | inconclusive: 0.199 µM [inhibitor, full curve, poor fit] | 
61 | Oc1c(Br)cc(Br)cc1C=NCc1ccccc1 | inconclusive: 39.8 µM [inhibitor, partial curve, poor fit] | 
62 | COc1cc(CNc2ccc(N3CCCCC3)cc2)ccc1OCC(=O)NC(C)(C)C | inconclusive: 44.7 µM [inhibitor, partial curve, poor fit] | 
63 | CN(c1ccc(F)cc1)S(=O)(=O)N1CCCC(C(=O)NCc2cccc(Br)c2)C1 (configuration not stated) | inactive | 
64 | Cc1ccc(NC(=O)C(=S)NCc2ccco2)cc1 | inactive | 
65 | CCN(CC)c1ccc2cc(-c3nc(-c4cccs4)no3)c(=O)oc2c1 | inactive | 
66 | Cc1nc2c(OCc3ccc(OC(F)F)cc3)cccn2c1N(C)C(=O)CCC1CCCC1 |  | inconclusive: -31% [inhibitor]
67 | Cc1ccc(C)c(NC(=O)c2csc3c2CCCCC3)c1 | inconclusive: 0.178 µM [inhibitor, full curve, poor fit] | 
